The target in this experiment is T1, GST-TRIM24 (1–400aa) (UniProt O15164).
T1 sequence: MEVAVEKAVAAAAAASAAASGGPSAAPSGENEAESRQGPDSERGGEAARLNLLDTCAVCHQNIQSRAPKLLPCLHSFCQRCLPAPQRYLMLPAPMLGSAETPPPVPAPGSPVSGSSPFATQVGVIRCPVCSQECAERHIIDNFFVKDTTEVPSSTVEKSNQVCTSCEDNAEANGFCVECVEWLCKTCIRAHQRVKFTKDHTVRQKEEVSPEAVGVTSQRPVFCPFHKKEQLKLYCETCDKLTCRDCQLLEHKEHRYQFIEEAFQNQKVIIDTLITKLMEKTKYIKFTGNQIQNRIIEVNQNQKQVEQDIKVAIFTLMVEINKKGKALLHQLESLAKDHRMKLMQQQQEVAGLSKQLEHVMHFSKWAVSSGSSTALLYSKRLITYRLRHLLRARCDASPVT
Nature of the experiment: pull-down; bacterial recombinant GST-TRIM24 (1–400aa) on GSH beads, incubated 2–3 h with LNCaP lysates expressing SFB-tagged TRIM28 full length or deletion mutants; washed with NETN; blot with anti-Flag; only the target purified.

These are yes or no findings as the source states them, for the method shown. Binding seen in cells or lysates may run through a third protein. Where a sequence is shown, tags or fusion partners need not be part of it.

Turning to TRIM28-ΔN-SFB (domain or fragment), the binding entry was “no binding”.

The values are drawn from paper PMC6258673.
